Measured values taken from patent publication US9963451B2, “Fused ring pyrimidine compound and pest control agent containing the same” (Mitsui Chemicals Agro, Inc., priority 2013, dated 2018).
Some entries share one result that the patent states for a list of compounds.

The molecules below were run on Laodelphax striatellus (assay: Test Example 1: insecticidal test against Laodelphax striatellus (root immersion and leaf spray of young rice plant)). Conditions: 100 ppm root immersion and 1000 ppm leaf spray, 25° C., after 6 days.
Type: in vivo

Row | SMILES | insect death ratio [%]
1 | CCCOc1nc2n(Cc3ccc(Cl)nc3)c(C)cc(=O)n2n1 [compound 99] | ≥ 70
2 | Cc1cc(=O)n2nc(C(F)(F)F)cc2n1Cc1cnc(Cl)c(F)c1 [compound 253] | ≥ 70
3 | CCS(=O)(=O)c1cc2n(Cc3ccc(Br)nc3)c(C)cc(=O)n2n1 [compound 260] | ≥ 70
4 | CCC(=O)Oc1nc2n(Cc3ccc(Cl)nc3)c(C)cc(=O)n2n1 [compound 102] | ≥ 70
5 | CSc1nc2n(Cc3ccc(Cl)nc3)c(C)c/c(=N\C3(C#N)CC3)n2n1 [compound 139] | ≥ 70
6 | Cc1c(C)n(Cc2cnc(Cl)s2)c2nc(S(C)(=O)=O)nn2c1=O [compound 2] | ≥ 70
7 | CSc1nc2n(Cc3ccc(Cl)nc3)c(C)c/c(=N\OC(C)C)n2n1 [compound 125] | ≥ 70
8 | COCc1cc(=O)n2nc([S+](C)[O-])nc2n1Cc1ccc(Cl)nc1 (centres unmarked) [compound 193] | ≥ 70
9 | Cc1cc(=O)n2nc(SCCCC(F)(F)F)nc2n1Cc1ccc(Cl)nc1 [compound 23] | ≥ 70
10 | Cc1cc(=O)n2nc(N(C)C)nc2n1Cc1ccc(Cl)nc1 [compound 14] | ≥ 70
11 | O=c1ccn(Cc2cnc(Cl)s2)c2cc(C(F)(F)F)nn12 [compound 216] | ≥ 70
12 | CS(=O)(=O)c1nc2n(Cc3ccc(Cl)nc3)ccc(=O)n2n1 [compound 204] | ≥ 70
13 | Cc1c([N+](=O)[O-])c(=O)n2nc(S(C)(=O)=O)nc2n1Cc1ccc(Cl)nc1 [compound 200] | ≥ 70
14 | CNc1nc2n(Cc3ccc(Cl)nc3)c(C)cc(=O)n2n1 [compound 38] | ≥ 70
15 | Cc1cc(=O)n2nc(/S(C)=N/C#N)nc2n1Cc1ccc(Cl)nc1 (centres unmarked) [compound 75] | ≥ 70
16 | CCc1cc2n(Cc3ccc(Cl)nc3)c(C)cc(=O)n2n1 [compound 158] | ≥ 70
17 | Cc1ccc(S(=O)(=O)Oc2nc3n(Cc4ccc(Cl)nc4)c(C)cc(=O)n3n2)cc1 [compound 93] | ≥ 70
18 | CC(=O)COc1nc2n(Cc3ccc(Cl)nc3)c(C)cc(=O)n2n1 [compound 101] | ≥ 70
19 | Cc1cc(=O)n2nc(OC(F)(F)Br)nc2n1Cc1ccc(Cl)nc1 [compound 137] | ≥ 70
20 | Cc1cc(=O)n2nc(Sc3ccccc3)nc2n1Cc1ccc(Cl)nc1 [compound 81] | ≥ 70
21 | Cc1c(C)n(Cc2ccc(Cl)nc2)c2nc(S(C)(=O)=O)nn2c1=O [compound 1] | ≥ 70

Row | SMILES | insect death ratio [%]
22 | CSc1nc2n(Cc3ccc(Cl)nc3)c(C)c/c(=N\C(C)=O)n2n1 [compound 181] | ≥ 70
23 | CCS(=O)(=O)c1cc2n(Cc3cnc(Cl)cc3Cl)c(C)cc(=O)n2n1 [compound 262] | ≥ 70
24 | CS(=O)(=O)c1nc2n(Cc3ccc(Cl)nc3)c(C(F)F)cc(=O)n2n1 [compound 273] | ≥ 70
25 | C=CCO/N=c1\cc(C)n(Cc2ccc(Cl)nc2)c2nc(SC)nn12 [compound 126] | ≥ 70
26 | CCc1nc2n(Cc3ccc(Cl)nc3)c(C)c([N+](=O)[O-])c(=O)n2n1 [compound 211] | ≥ 70
27 | COC(=O)Oc1nc2n(Cc3ccc(Cl)nc3)c(C)cc(=O)n2n1 [compound 103] | ≥ 70
28 | CC(=O)Oc1nc2n(Cc3ccc(Cl)nc3)c(C)cc(=O)n2n1 [compound 92] | ≥ 70
29 | CC#CCOc1nc2n(Cc3ccc(Cl)nc3)c(C)cc(=O)n2n1 [compound 98] | ≥ 70
30 | Cc1cc(=O)n2nc(O)nc2n1Cc1ccc(Cl)nc1 [compound 88, 4-((6-chloropyridin-3-yl)methyl)-2-hydroxy-5-methyl-[1,2,4]triazolo[1,5-a]pyrimidin-7(4H)-one] | ≥ 70
31 | CSc1nc2n(C(C)c3ccc(Cl)nc3)ccc(=O)n2n1 (centres unmarked) [compound 68] | ≥ 70
32 | Cc1cc(=O)n2nc(OS(=O)(=O)N(C)C)nc2n1Cc1ccc(Cl)nc1 [compound 104] | ≥ 70
33 | CSc1nc2n(Cc3ccc(Cl)nc3)c(CCl)cc(=O)n2n1 [compound 194] | ≥ 70
34 | Cc1cc(=O)n2nc(SCCC(F)(F)F)nc2n1Cc1ccc(Cl)nc1 [compound 22] | ≥ 70
35 | Cc1c(C)n(Cc2ccc(Cl)nc2)c2ncnn2c1=O [compound 9] | ≥ 70
36 | CCS(=O)(=O)Oc1nc2n(Cc3ccc(Cl)nc3)c(C)cc(=O)n2n1 [compound 111] | ≥ 70
37 | CSc1nc2n(Cc3ccc(Cl)nc3)c(C)c/c(=N\C3CC3)n2n1 [compound 138] | ≥ 70
38 | Cc1cn(Cc2ccc(Cl)nc2)c2nc([S+](C)[O-])nn2c1=O (centres unmarked) [compound 65] | ≥ 70
39 | Cc1cc(=O)n2nc(SS(=O)(=O)C(F)(F)F)nc2n1Cc1ccc(Cl)nc1 [compound 130] | ≥ 70
40 | C/N=c1\cc(C)n(Cc2ccc(Cl)nc2)c2nc(SC)nn12 [compound 129] | ≥ 70
41 | CSc1nc2n(Cc3ccc(Cl)nc3)c(C)cc(=N)n2n1 [compound 131, 4-((6-chloropyridin-3-yl)methyl)-5-methyl-2-(methylthio)-[1,2,4]triazolo[1,5-a]pyrimidin-7(4H)-imine] | ≥ 70
42 | Cc1cc(=O)n2nc(OCC#N)nc2n1Cc1ccc(Cl)nc1 [compound 96] | ≥ 70

Row | SMILES | insect death ratio [%]
43 | COCOc1nc2n(Cc3ccc(Cl)nc3)c(C)cc(=O)n2n1 [compound 89, 4-((6-chloropyridin-3-yl)methyl)-2-(methoxymethoxy)-5-methyl-[1,2,4]triazolo[1,5-a]pyrimidin-7(4H)-one] | ≥ 70
44 | Cc1cc(=O)n2nc(OCCCC#N)nc2n1Cc1ccc(Cl)nc1 [compound 123] | ≥ 70
45 | CSc1nc2n(Cc3ccc(Cl)nc3)c(C)c/c(=N\CC(F)(F)F)n2n1 [compound 132] | ≥ 70
46 | CO/N=c1\cc(C)n(Cc2ccc(Cl)nc2)c2nc(S(C)(=O)=O)nn12 [compound 119] | ≥ 70
47 | Cc1ccc(Oc2nc3n(Cc4ccc(Cl)nc4)c(C)cc(=O)n3n2)cc1 [compound 72] | ≥ 70
48 | CSc1nc2n(Cc3ccc(Cl)nc3)c(C)c/c(=N\C#N)n2n1 [compound 128] | ≥ 70
49 | Cc1cc(=O)n2nc(Oc3ccc(C#N)cc3)nc2n1Cc1ccc(Cl)nc1 [compound 73] | ≥ 70
50 | CSc1nc2n(Cc3ccc(Cl)nc3)c(C)c/c(=N\c3ccccc3)n2n1 [compound 134] | ≥ 70
51 | CSc1nc2n(Cc3ccc(Cl)nc3)ccc(=O)n2n1 [compound 36] | ≥ 70
52 | CS(=O)(=O)c1cc2n(Cc3ccc(Cl)nc3)c3c(c(=O)n2n1)CCC3 [compound 265] | ≥ 70
53 | CSc1nc2n(Cc3ccc(Cl)nc3)c(C(F)F)cc(=O)n2n1 [compound 272] | ≥ 70
54 | CSc1nc2n(Cc3ccc(Cl)nc3)c(C)cc(=S)n2n1 [compound 24, 4-((6-chloropyridin-3-yl)methyl)-5-methyl-2-(methylthio)-[1,2,4]triazolo[1,5-a]pyrimidin-7(4H)-thione] | ≥ 70
55 | Cc1cn(Cc2ccc(Cl)nc2)c2nc(S(C)(=O)=O)nn2c1=O [compound 64] | ≥ 70
56 | COC(=O)N/N=c1\cc(C)n(Cc2ccc(Cl)nc2)c2nc(SC)nn12 [compound 186] | ≥ 70
57 | Cc1cc(=O)n2nc(OC(C)C#N)nc2n1Cc1ccc(Cl)nc1 (centres unmarked) [compound 105] | ≥ 70
58 | CSc1nc2n(Cc3cnc(Cl)s3)c(C)cc(=O)n2n1 [compound 20] | ≥ 70
59 | CCC/N=c1\cc(C)n(Cc2ccc(Cl)nc2)c2nc(SC)nn12 [compound 133] | ≥ 70
60 | Cc1cc(=O)n2nc(S)nc2n1Cc1ccc(Cl)nc1 [compound 82] | ≥ 70
61 | COc1ccc(Oc2nc3n(Cc4ccc(Cl)nc4)c(C)cc(=O)n3n2)cc1 [compound 74] | ≥ 70
62 | CCCS(=O)(=O)Oc1nc2n(Cc3ccc(Cl)nc3)c(C)cc(=O)n2n1 [compound 112] | ≥ 70

Each molecule was assayed on Myzus persicae (assay: Test Example 2: insecticidal test against Myzus persicae (root immersion and leaf spray of young white radish plant)). Conditions: 100 ppm root immersion and 1000 ppm leaf spray, 1-stage larvae, 25° C., after 5 days.
Type: in vivo

Row | SMILES | insect death ratio [%]
63 | CCCOc1nc2n(Cc3ccc(Cl)nc3)c(C)cc(=O)n2n1 [compound 99] | ≥ 70
64 | Cc1cc(=O)n2nc(C(F)(F)F)cc2n1Cc1cnc(Cl)c(F)c1 [compound 253] | ≥ 70
65 | CCS(=O)(=O)c1cc2n(Cc3ccc(Br)nc3)c(C)cc(=O)n2n1 [compound 260] | ≥ 70
66 | Cc1cc(=O)n2nc(OCCC(C)C)nc2n1Cc1ccc(Cl)nc1 [compound 115] | ≥ 70
67 | Cc1c([N+](=O)[O-])c(=O)n2nnnc2n1Cc1ccc(Cl)nc1 [compound 268] | ≥ 70
68 | Cc1cc(=O)n2nc(-c3ccccc3F)nc2n1Cc1ccc(Cl)nc1 [compound 28] | ≥ 70
69 | CCOC(=O)c1cn(Cc2ccc(Cl)nc2)c2ccnn2c1=O [compound 152] | ≥ 70
70 | CCOC(=O)c1cn(Cc2ccc(Cl)nc2)c2ncnn2c1=O [compound 197] | ≥ 70
71 | CCOC(=O)c1cn(Cc2ccc(Cl)nc2)c2nc(C(F)(F)F)nn2c1=O [compound 202] | ≥ 70
72 | Cc1cc(=O)n2nccc2n1Cc1cncnc1 [compound 279] | ≥ 70
73 | CSc1nc2n(Cc3ccc(Cl)nc3)c(C(C)C)cc(=O)n2n1 [compound 18] | ≥ 70
74 | CCOC(=O)c1cn(Cc2ccc(Cl)nc2)c2cc(C(F)(F)F)nn2c1=O [compound 222] | ≥ 70
75 | Cc1c([N+](=O)[O-])c(=O)n2nc(S(C)(=O)=O)cc2n1Cc1ccc(Cl)nc1 [compound 234] | ≥ 70
76 | Cc1cc(=O)n2cc(C(F)(F)F)nc2n1Cc1ccc(Cl)nc1 [compound 147] | ≥ 70
77 | COc1cc(Cn2c(C)cc(=O)n3nc(SC)cc23)cnc1Cl [compound 315] | ≥ 70
78 | COc1cc(Cn2c(C)cc(=O)n3nc(SC)nc23)cnc1Cl [compound 316] | ≥ 70
79 | CSc1nn2c(=O)ccn(Cc3ccc(Cl)nc3)c2c1C#N [compound 238] | ≥ 70
80 | CSc1nc2n(Cc3ccc(Cl)nc3)c(Cl)cc(=O)n2n1 [compound 208] | ≥ 70
